Measured data: PubChem BioAssay AID686937 (Drosophila RNAi Screening Center, 2013)

Purpose: 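Knock-downs that reduce output of a secreted reporter enzyme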 (primary screen)
System: Drosophila S2 cells expressing secreted horseradish peroxidase
Reagent: long dsRNA against Drosophila genes
Time to read-out: about 5.5 days (5 days dsRNA, then 12 h reporter induction)
Conditions: reporter expression induced after 5 days of dsRNA, read 12 h later; inducer not stated
Detection: 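After 5 days of dsRNA and 12 h of reporter induction, medium peroxidase read by chemiluminescence and scored as per-plate z-score; higher values mean more reporter released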
Reading the numbers: z-score: higher = more reporter secreted into medium
The deposit covers about 23,000 reagents; this is an unselected part of those that have a named target and a result. 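Reduced-secretion tags in replicate 1 do not always agree with the z-scores; no criterion for assigning the tags was given.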 Not all columns of the deposit are shown. No sequences are given here. Not given: the amount of reagent.

Target gene | dsRNA | z-score, replicate 1 | z-score, replicate 2
Efhc1.2 | DRSC06027 | 0.08 | -0.04
CG3502 | DRSC04381 | 0.28 | 0.39
CG11300 | DRSC04104 | 0.18 | 0.43
CG42579 | DRSC20391 | 0.34 | -1.16
mtsh | DRSC03070 | 0.38 | 0.49
CG30371 | DRSC06835 | 0.45 | 0.3
dib | DRSC08711 | 0.13 | 0.14
CG9933 | DRSC03276 | 0.07 | 0.21
Bap111 | DRSC18419 | -1.11 | -0.81
Bulli | DRSC10974 | 0.24 | 0.18
twi | DRSC04720 | 0.41 | 0.09
h-cup | DRSC15973 | 0 | 0.15
eIF6 | DRSC04674 | 0.16 | 0.03
LKRSDH | DRSC03015 | 0.26 | 0.15
CG5746 | DRSC15868 | 0.17 | 0.37
Ptp69D | DRSC11258 | 0.28 | 0.46
Hpd | DRSC11670 | 0.19 | 0.3
Pig1 | DRSC18698 | -0.32 | 0
Tusp | DRSC15838 | 0.4 | 0.65
CG17571 | DRSC01768 | 0.32 | 0.41
CG17571 | DRSC03755 | 0.04 | 0.35
LysS | DRSC08677 | 0.42 | 0.4
wor | DRSC03637 | -0.26 | 0.01
Pvf3 | DRSC02284 | 0.17 | 0.14
Pvf3 | DRSC02285 | 0.21 | 0.34
Pvf3 | DRSC02286 | 0.99 | 0.48
Pvf3 | DRSC02751 | 0.15 | 0.13
Kyat | DRSC16147 | 0.13 | -0.06
Ir94a | DRSC13538 | -0.91 | -0.04
RpS27 | DRSC14244 | -1.79 | -2.12
Cpr64Ab | DRSC08461 | -0.46 | -0.19
bon | DRSC16914 | 0.24 | 0.37
CG13423 | DRSC06386 | -0.16 | 0.36
CG30458 | DRSC06660 | 0.38 | 0.24
CG5805 | DRSC15878 | 0.39 | 0.39
serp | DRSC11035 | 0.27 | 0.41
serp | DRSC11036 | 0.34 | 0.42
CG33758 | DRSC05158 | -0.08 | –
CG1698 | DRSC06640 | 0.46 | 0.47
IntS9 | DRSC10493 | 0.47 | 0.39
Rbp4 | DRSC16818 | 0.38 | 0.6
NdufA3 | DRSC18431 | 0.32 | 0.05
CG30479 | DRSC06735 | 0.06 | 0.02
CG4049 | DRSC04443 | 0.21 | 0.01
CG9072 | DRSC20147 | 0.4 | 0.41
CG3092 | DRSC04336 | 0.32 | 0.43
CG34267 | DRSC07881 | 0.56 | 0.2
Cpr30B | DRSC02728 | 0.77 | 0.63
CG33299 | DRSC01085 | 0.77 | 0.92
CG12640 | DRSC17847 | 0.46 | 0.17
aux | DRSC12161 | 0.2 | 0.34
CG7720 | DRSC16306 | 0.43 | 0.37
CG7720 | DRSC16307 | -1.17 | -0.71
DAT | DRSC07394 | 0.49 | 0.33
CG13562 | DRSC04200 | -0.03 | 0.42
Sik3 | DRSC06505 | 0.22 | 0.34
Sik3 | DRSC06771 | -1.71 | -1.22
PGRP-LE | DRSC20137 | 0.28 | 0.44
CG5888 | DRSC01929 | -0.21 | 0.13
Atg101 | DRSC20020 | 0.18 | 0.3
CG14780 | DRSC18566 | 0.18 | 0.36
CG17375 | DRSC02614 | 0.17 | 0.18
CG9445 | DRSC05006 | 0.45 | 0.41
E23 | DRSC00425 | -1.75 | -1.52
E23 | DRSC00593 | 0.27 | 0.21
ds | DRSC00815 | 0.25 | 0.01
mRpL20 | DRSC09828 | -0.07 | 0.14
CG13639 | DRSC14638 | 0.39 | 0.4
CG7914 | DRSC20068 | 0.37 | 0.41
RhoGAP18B | DRSC19763 | 0.14 | 0.28
RhoGAP18B | DRSC20047 | 0.43 | 0.28
RhoGAP18B | DRSC20048 | -0.06 | 0.18
RhoGAP18B | DRSC20049 | -0.94 | -0.13
Ote | DRSC07498 | 0.29 | 0.47
CG31776 | DRSC00716 | 0.35 | 0.33
Acbp3 | DRSC11022 | 0.13 | 0.18
Sec20 | DRSC12295 | -1.66 | -0.82
Dhc1 | DRSC12748 | 0.44 | -1.01
Dhc1 | DRSC16503 | 0.27 | 0.31
CG9632 | DRSC16528 | -0.13 | -0.16
pygo | DRSC14322 | 0.26 | -0.05
Bicra | DRSC14417 | 0.46 | 0.44

9 neighbouring records from above, for reference:
Target gene | dsRNA | z-score, replicate 1 | z-score, replicate 2
PGRP-LE | DRSC20137 | 0.28 | 0.44
CG5888 | DRSC01929 | -0.21 | 0.13
Atg101 | DRSC20020 | 0.18 | 0.3
CG14780 | DRSC18566 | 0.18 | 0.36
CG17375 | DRSC02614 | 0.17 | 0.18
CG9445 | DRSC05006 | 0.45 | 0.41
E23 | DRSC00425 | -1.75 | -1.52
E23 | DRSC00593 | 0.27 | 0.21
ds | DRSC00815 | 0.25 | 0.01
